Laboratory results published in patent publication US20050191261A1, “Process for strengthening hair and improving the compatibility of a treatment for waving the hair with another subsequent cosmetic treatment comprising applying derivatives of 2-iminothiolane” (priority 2004, published 2005).

Tests used:
[1] = Compatibility of waving with subsequent coloration by oxidation: uptake of the color (spectrocolorimeter, L*a*b); conditions: coloration with L'OREAL Professionnel Crescendo 7.44, 30 minutes at 30° C., on locks treated as in Example 1; ΔE*ab
[2] = Efficacy and durability of waving: length of the loop of curled locks after relaxation at controlled humidity; conditions: for Length of the lock initially: t=0, 80% relative humidity, 2-iminothiolane HCl 1% by weight, pH 7.4, 50° C., 2 hours, thioglycolic acid 1 mol/L, pH 8.5, 30° C., 15 minutes, then H2O2 fixation; for Length of the lock initially / Length of the lock at t = 30 min / Length of the lock at t = 1 h: 25° C.; for Length of the lock at t = 30 min: t=30 minutes at 80% relative humidity; for Length of the lock at t = 30 min / Length of the lock at t = 1 h: same treatments as E1; for Length of the lock at t = 1 h: t=1 hour at 80% relative humidity

Row | Compound | Uptake of the color (ΔE) [1] | Length of the lock initially [2] [mm] | Length of the lock at t = 30 min [2] [mm] | Length of the lock at t = 1 h [2] [mm] | Waving effect of the treatment (in words) ([2]; treatment at neutral pH followed by fixation)
1 | O=C(O)CS [thioglycolic acid, reference compound] | 29.0 +/− 0.5 | 7 | 9.5 | 12.5 | –
2 | Cl.N=C1CCCS1 [2-iminothiolane HCl, :-dihydro-thiophen-2-ylideneamine hydrochloride] | 23.9 +/− 1.4 | 7.5 | 12.5 | 14 | leads to permanent waving
